Results as given in patent publication US20130266515.
For some of these results: Weaker means in comparison with the reference protein, sequence or condition of that experiment. For some of these results: At least one result comes from cells or an extract, where the contact may be indirect. For some of these results: For at least one entry, the source does not settle the construct or the ends of the probe.

Chains of the proteins cited; added tags and fusions are not shown. Chains listed by the source or under a name are the forms on record and can include a tag or linker. Residues count along the entry.
UniProt P07355, 2-339: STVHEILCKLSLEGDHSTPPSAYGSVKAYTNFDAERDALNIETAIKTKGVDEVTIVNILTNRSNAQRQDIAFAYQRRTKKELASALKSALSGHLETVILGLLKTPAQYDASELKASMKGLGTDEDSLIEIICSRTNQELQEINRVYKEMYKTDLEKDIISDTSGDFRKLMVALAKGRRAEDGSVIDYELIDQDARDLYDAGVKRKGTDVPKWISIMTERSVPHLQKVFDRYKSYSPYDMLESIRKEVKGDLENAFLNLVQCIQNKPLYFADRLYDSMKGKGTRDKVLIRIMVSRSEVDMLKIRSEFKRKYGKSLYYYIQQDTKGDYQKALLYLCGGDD
annexin 2/S100A10 heterotetrameric complex (Bos taurus), one chain, as listed by the source, chain 1 of 2: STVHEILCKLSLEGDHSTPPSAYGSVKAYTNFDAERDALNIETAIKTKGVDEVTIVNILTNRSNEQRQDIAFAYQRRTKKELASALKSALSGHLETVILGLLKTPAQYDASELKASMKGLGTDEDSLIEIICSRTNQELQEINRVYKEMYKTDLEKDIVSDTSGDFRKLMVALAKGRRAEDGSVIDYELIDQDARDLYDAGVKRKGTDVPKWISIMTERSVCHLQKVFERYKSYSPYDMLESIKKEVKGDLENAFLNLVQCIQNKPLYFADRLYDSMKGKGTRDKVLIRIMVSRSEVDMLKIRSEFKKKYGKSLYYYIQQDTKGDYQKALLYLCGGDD
annexin 2/S100A10 heterotetrameric complex (Bos taurus), one chain, as listed by the source, chain 2 of 2: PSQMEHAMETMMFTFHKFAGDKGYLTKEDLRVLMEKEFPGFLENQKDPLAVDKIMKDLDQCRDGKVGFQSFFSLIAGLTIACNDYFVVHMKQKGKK

Columns and labels:
[1] = molecular target: annexin 2 (Homo sapiens) (UniProt P07355); assay: competition with a labelled probe; conditions: 2'-F pyrimidines; ER4 and ACE8 compete, suggesting annexin 2 is also the ER4 target; ER4 strong affinity for MCF-7 cells; protein on the cell surface
[2] = tested on: annexin 2/S100A10 heterotetrameric complex (Bos taurus); assay: filter binding; conditions: 2'-F pyrimidines; control sequence, same conditions; purified native protein; protein details: purified from bovine lung, Interchim A80109B; label: 32P or fluorescent
[3] = molecular target: annexin 2 (Homo sapiens) (UniProt P07355); assay: activity in cells; conditions: 2'-F pyrimidines, 2'-OH purines; 5 uM ACE8 strongly inhibits HUVEC endothelial tube formation on Matrigel; target not directly verified in this assay; protein on the cell surface
[4] = molecular target: annexin 2 (Homo sapiens) (UniProt P07355); assay: binding assay; conditions: 2'-F pyrimidines, 2'-OH purines; MCF-7 cells, radiolabeled cell binding, Scatchard; Cmax 484 pM; target assigned as annexin 2; protein on the cell surface

GGGAGAUGAUCCGUUGAUGCGAGAGCUAGGCCGCAAGGUGCCUCAACGCCAUCUGAGUGCCGACCCGAUCGCAAGUCGUCGUUCGUAGGCAGAAUC [ER4]
binding result [1]: binds

GGGAGAUGAUCCGUUGAUGCGAGGAUCCCUACGACCUCGUAGCACACACAUAGGUGCACUCACCCGGCUGACCAAGUCGUCGUUCGUAGGCAGAAUC [control sequence]
binding result [2]: binds more weakly

GGGAGAUGAUCCGUUGAUGCGAGGGAACGCAAGAACUGAGGCCAUGAGGCGCCUUCCCUUGCUCAGGACGCAAGUCGUCGUUCGUAGGCAGAAUC [ACE8]
functional effect of the aptamer [3]: active | Kd [4]: 4.9 nM
